Reference: article PMC11655647

Amino acid sequences for entries named in this document (tags omitted). Residues count along the entry.
UniProt P20029, residues 20-655: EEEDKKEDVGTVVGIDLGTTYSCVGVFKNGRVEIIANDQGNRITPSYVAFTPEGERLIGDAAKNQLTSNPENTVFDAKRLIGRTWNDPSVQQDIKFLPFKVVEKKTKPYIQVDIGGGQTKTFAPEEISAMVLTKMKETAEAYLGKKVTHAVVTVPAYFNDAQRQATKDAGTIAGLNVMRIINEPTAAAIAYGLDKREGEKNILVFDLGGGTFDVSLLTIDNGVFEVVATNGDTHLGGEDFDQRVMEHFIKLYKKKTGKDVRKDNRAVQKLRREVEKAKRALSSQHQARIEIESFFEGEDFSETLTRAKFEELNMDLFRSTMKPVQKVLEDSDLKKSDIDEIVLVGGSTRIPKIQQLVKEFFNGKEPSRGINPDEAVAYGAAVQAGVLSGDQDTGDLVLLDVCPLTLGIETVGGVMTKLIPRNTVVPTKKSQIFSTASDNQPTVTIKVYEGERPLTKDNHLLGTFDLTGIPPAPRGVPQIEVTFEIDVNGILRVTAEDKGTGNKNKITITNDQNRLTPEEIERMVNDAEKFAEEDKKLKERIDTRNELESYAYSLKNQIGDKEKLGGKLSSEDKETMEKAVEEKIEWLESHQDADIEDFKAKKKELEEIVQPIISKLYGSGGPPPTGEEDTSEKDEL

T1: mouse GALNTL5 protein tagged with green fluorescent protein (GFP) (mouse) (UniProt Q9D4M9)
T1 sequence: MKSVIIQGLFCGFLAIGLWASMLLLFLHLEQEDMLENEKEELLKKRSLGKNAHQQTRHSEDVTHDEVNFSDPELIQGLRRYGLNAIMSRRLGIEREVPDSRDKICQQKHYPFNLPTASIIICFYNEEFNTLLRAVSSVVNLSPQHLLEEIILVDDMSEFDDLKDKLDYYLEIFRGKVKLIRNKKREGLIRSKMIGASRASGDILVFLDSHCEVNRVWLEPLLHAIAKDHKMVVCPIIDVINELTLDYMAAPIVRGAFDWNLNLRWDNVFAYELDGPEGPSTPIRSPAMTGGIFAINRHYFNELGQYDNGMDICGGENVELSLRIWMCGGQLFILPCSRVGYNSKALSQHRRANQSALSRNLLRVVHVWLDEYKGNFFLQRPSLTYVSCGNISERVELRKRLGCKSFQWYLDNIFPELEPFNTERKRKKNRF


Target: T1, mouse GALNTL5 protein tagged with green fluorescent protein (GFP) (mouse)
Test: affinity purification with mass spectrometry; lysates of GALNTL5-GFP/GC-2spd(ts) cells cultured 2 days with cumate; IP with anti-GFP mAb-Magnetic Beads; bands around 75 kDa cut from the SDS-PAGE gel, trypsin digest, MS

| binding | Molecule |
| --- | --- |
| binds | BiP (GRP78) (mouse, endogenous) (from UniProt P20029 20-655) |
| binds | calnexin (mouse, endogenous) (protein, UniProt P35564 21-591) HDGHDDDAIDIEDDLDDVIEEVEDSKSKSDASTPPSPKVTYKAPVPTGEVYFADSFDRGSLSGWILSKAKKDDTDDEIAKYDGKWEVDEMKETKLPGDKGLVLMSRAKHHAISAKLNKPFLFDTKPLIVQYEVNFQNGIECGGAYVKLLSKTAELSLDQFHDKTPYTIMFGPDKCGEDYKLHFIFRHKNPKTGVYEEKHAKRPDADLKTYFTDKKTHLYTLILNPDNSFEILVDQSVVNSGNLLNDMTPPVNPSREIEDPEDRKPEDWDERPKIADPDAVKPDDWDEDAPSKIPDEEATKPEGWLDDEPEYIPDPDAEKPEDWDEDMDGEWEAPQIANPKCESAPGCGVWQRPMIDNPNYKGKWKPPMIDNPNYQGIWKPRKIPNPDFFEDLEPFKMTPFSAIGLELWSMTSDIFFDNFIISGDRRVVDDWANDGWGLKKAADGAAEPGVVLQMLEAAEERPWLWVVYILTVALPVFLVILFCCSGKKQSNAMEYKKTDAPQPDVKDEEGKEEEKNKRDEEEEEEKLEEKQKSDAEEDGVTGSQDEEDSKPKAEEDEILNRSPRNRKPRRE |

No constants are given. Whether binding was seen depends on the method and setting. In cells and extracts the contact can be indirect. A yes stands for co-enrichment or nearness to the bait. Other partners may have been found. Where a sequence is shown, tags or fusion partners need not be part of it.
